# Measurements published in PubChem BioAssay AID504467 (National Center for Advancing Translational Sciences (NCATS), 2011).
# Screen size: about 330,000 compounds; about 7,700 (2.3%) were called active. The inconclusive results got no clear call from the source; some entries with a clear call stand among them for comparison. Calls come from the whole dose curve; as a rule, active = well fitted inhibition curve with a large enough effect; inconclusive = small, poorly fitted or top-dose-only effect, or effect the other way; inactive = flat fitted curve, though single readings scatter. Potencies beside an inconclusive call are fits to weak or partial responses and may not hold up.
# Test: qHTS screen for small molecules that inhibit ELG1-dependent DNA repair in human embryonic kidney (HEK293T) cells expressing luciferase-tagged ELG1; note: nearly all actives have a fitted effect of over 55% in size
# Details: HEK293T ELG1-luciferase reporter, luminescence, 16 h, DNA damage induced by 5-fluorouridine; series mostly up to 46.1 µM
# Procedure, shortened: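 DMSO vehicle served as the neutral condition. Each well held 2,000 cells given 5-fluorouridine plus compound; after 16 hr at 37 °C/5% CO2, ONE-Glo was added and luciferase measured 30 min later.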
# Potency is the fitted concentration of half-maximal effect.
row,Structure (SMILES),Potency
1,Cc1cc(C)cc(NC(=O)/C=C/c2ccc([N+](=O)[O-])s2)c1,inactive
2,CCCc1nc2oc3cc(OC)ccc3c(=O)c2c(=O)n1CCc1ccccc1,"inconclusive: 20.6 µM [inhibitor, partial curve]"
3,COc1ccc(N2CCN(C(=O)c3cn(C4CCCC4)c(=O)c4c3c3ccccc3n4C)CC2)cc1,"inconclusive: 29.1 µM [inhibitor, single point]"
4,Cc1ccc(-n2nc(C)c(C3C(C#N)=C(N)OC4=C3C(=O)CC(C)(C)C4)c2Cl)cc1 (stereo not given),"inconclusive: 18.4 µM [inhibitor, partial curve, poor fit]"
5,CCCCn1c(N)c(N(CCOC)C(=O)c2c(-c3ccccc3)noc2C)c(=O)[nH]c1=O,inactive
6,Cc1cccc([C@@H]2[C@@H]3C(=O)N(Cc4ccccc4)C(=O)[C@@H]3[C@]3(C)C(=O)N(c4ccc(C(F)(F)F)cc4)C(=O)N23)c1,"inconclusive: 2.06 µM [activator, single point]"
7,Cc1ccc(NC(=S)NCc2ccc3c(c2)OCO3)cc1,inactive
8,O=C(Nc1ccc2ccccc2c1)c1cc(F)c(F)cc1Cl,"inconclusive: 10.3 µM [activator, partial curve]"
9,CCc1ccccc1N(CC(=O)N1CCCCCC1)S(C)(=O)=O,inactive
10,Cc1cc(C)c(NC(=O)CS(=O)CC(=O)Nc2ccc(-n3cnnn3)c(C)c2)c(C)c1 (stereo not given),inactive
11,COc1ccccc1C(=O)NCc1ccc(-c2nc3ccccc3s2)cc1,"inconclusive: 16.4 µM [activator, partial curve]"
12,O=C(Nc1cccc([N+](=O)[O-])c1)c1ccc2ccccc2c1O,"inconclusive: 23.1 µM [activator, partial curve]"
13,COc1ccc(C(=O)OCC(=O)c2ccc[nH]2)c(OC)c1,"inconclusive: 18.3 µM [activator, partial curve]"
14,CCC(=O)Nc1cc(NC(=O)CSc2ncc(-c3ccc(F)cc3)n2Cc2ccco2)ccc1C,"inconclusive: 5.17 µM [activator, single point]"
15,COc1ccc(Cl)cc1C(=O)CSc1nnnn1C1CCCC1,"inconclusive: 18.4 µM [activator, partial curve, poor fit]"
16,CCCCC(CC)CNC(=O)c1[nH]c(C)c(C(C)=O)c1C (stereo not given),"inconclusive: 16.4 µM [inhibitor, partial curve, poor fit]"
17,COc1ccccc1-c1c(C)oc2c(CN3CCCC(C)C3)c(O)ccc2c1=O (stereo not given),inactive
18,Cc1ccccc1NC(=O)Cn1cnc2c(oc3ccccc32)c1=O,inactive
19,Cc1cc(=O)oc(C)c1C(=O)OCC(=O)c1ccc2ccccc2c1,"inconclusive: 29.1 µM [inhibitor, single point]"
20,O=S(=O)(c1ccccc1)N1CCN(c2nc(-c3cccs3)nc3ccccc23)CC1,"inconclusive: 20.6 µM [inhibitor, partial curve]"
21,CC(C)C1Cc2c(sc3c2c(=O)n(Cc2ccccc2)c2nncn32)CO1 (stereo not given),"inconclusive: 29.1 µM [inhibitor, single point]"
22,COc1ccc(N=C2NC(=O)/C(=C/c3ccc(O)c(OC)c3)S2)cc1,"inconclusive: 23.1 µM [inhibitor, partial curve, poor fit]"
23,CCN(CC)c1ccc(-c2nn3c(-c4ccccc4OC)nnc3s2)cc1,"inconclusive: 23.1 µM [inhibitor, single point]"
24,CC1CCC/C(=C(\C#N)c2nc(-c3cc4ccccc4oc3=O)cs2)C1 (stereo not given),"inconclusive: 4.11 µM [activator, full curve]"

# 4 entries from above, sorted by molar mass, smallest number first:
row,Structure (SMILES),Potency
13,COc1ccc(C(=O)OCC(=O)c2ccc[nH]2)c(OC)c1,"inconclusive: 18.3 µM [activator, partial curve]"
19,Cc1cc(=O)oc(C)c1C(=O)OCC(=O)c1ccc2ccccc2c1,"inconclusive: 29.1 µM [inhibitor, single point]"
15,COc1ccc(Cl)cc1C(=O)CSc1nnnn1C1CCCC1,"inconclusive: 18.4 µM [activator, partial curve, poor fit]"
10,Cc1cc(C)c(NC(=O)CS(=O)CC(=O)Nc2ccc(-n3cnnn3)c(C)c2)c(C)c1 (stereo not given),inactive

# (further entries)

row,Structure (SMILES),Potency
1,Cc1ccc2[nH]c(=O)c(CN(CCCO)S(=O)(=O)c3c(C)ccc4nsnc34)cc2c1,inactive
2,FC(F)(F)COc1nc(N/N=C/c2cccnc2)nc(N2CCCCC2c2ccccn2)n1 (stereo not given),"inconclusive: 20.6 µM [inhibitor, partial curve]"
3,Cc1ccc2c(c1)nnn2C1CCN(C(=O)Nc2ccccc2C)CC1,inactive
4,CC(=O)Nc1ccc(-c2csc(Nc3ccc(Cl)cn3)n2)cc1,"inconclusive: 6.51 µM [inhibitor, single point]"
5,CCOc1ccc(OCCOC(=O)CN2C(=O)NC3(CCCC3)C2=O)cc1,inactive
6,CCOC(=O)c1c(S(=O)(=O)NCC(=O)Nc2ccc(F)cc2)c(C)n(C)c1C,inactive
7,COc1ccc(Cc2noc(-c3ccc([N+](=O)[O-])cc3)n2)cc1OC,active: 18.3 µM
8,Cc1ccc(-c2noc(CSc3ccccc3)n2)cc1,"inconclusive: 8.2 µM [activator, partial curve]"
9,Cc1ccc(-c2nc(CSCC(=O)Nc3cc(C)on3)c(C)o2)cc1,"inconclusive: 29.1 µM [inhibitor, single point]"
10,CCN(CC)c1ccc(C=Nc2cccc(S(=O)(=O)N3CCOCC3)c2)c(O)c1,inactive
11,Cc1onc(-c2c(Cl)cccc2Cl)c1-c1nnc(-c2ccc(Cl)cc2)o1,"inconclusive: 25.9 µM [activator, single point]"
12,CCOc1ccc(CCNC(=O)COC(=O)c2cc(S(=O)(=O)N3CCOCC3)ccc2F)cc1OCC,inactive
13,CCOc1ccc2nc(SC(CC)C(=O)Nc3cc(C)on3)sc2c1 (stereo not given),"inconclusive: 35.5 µM [inhibitor, single point]"
14,Cc1ccc(OCc2nc(-c3cccnc3)no2)cc1C,"inconclusive: 20.6 µM [activator, partial curve]"
15,Cn1/c(=N\NC(=O)c2ccccc2Cl)sc2ccccc21,"inconclusive: 23.1 µM [activator, partial curve]"
16,Nc1cnn(C2OC(CO)C(O)C2O)c(=O)n1 (stereo not given),"inconclusive: 16.4 µM [activator, single point]"
17,CCOC(=O)NC(=O)CN1C(=O)NC2(CCc3ccccc32)C1=O (stereo not given),"inconclusive: 23.1 µM [inhibitor, single point]"
18,CC(C)CN=Cc1c(O)c([N+](=O)[O-])cc2oc3c(c12)CCCC3,inactive
19,O=C(COC(=O)c1ccc(Cl)nc1)c1ccc2c(c1)OCCO2,"inconclusive: 20.6 µM [activator, single point]"
20,CC(C)c1nnc(NC(=O)CSc2nnc(NC(=O)c3c(F)cccc3F)s2)s1,"inconclusive: 20.6 µM [activator, partial curve]"
21,CCOc1ccc(N2C(=O)S/C(=C\c3cccn3C)C2=O)cc1,"inconclusive: 18.4 µM [activator, partial curve]"
22,CCOC(=O)N/N=C/C(Cl)=C/c1ccccc1,"inconclusive: 18.3 µM [activator, partial curve]"
23,Nc1nc(NC(=O)c2ccco2)nn1-c1ccccc1,"inconclusive: 16.4 µM [activator, partial curve]"
24,Cc1nc(-c2ccccc2)sc1-c1nc(-c2cccnc2)ncc1S(=O)(=O)c1ccccc1,"inconclusive: 23.1 µM [inhibitor, single point]"

row,Structure (SMILES),Potency
1,CCOC(=O)c1sc(NC(=O)c2ccc(=O)[nH]c2)nc1C,inactive
2,COC(=O)c1ccc(NC(=O)CSCc2ccccc2)cc1,"inconclusive: 18.4 µM [activator, single point]"
3,O=C(COc1cccnc1[N+](=O)[O-])NCc1ccco1,inactive
4,CCCc1nn(C)c(C(=O)Nc2cccc(CC)c2)c1Cl,"inconclusive: 23.1 µM [activator, partial curve]"
5,Cc1nn(CC(=O)NCCN2CCOCC2)c(=O)c2cc3sccc3n12,"inconclusive: 29.1 µM [activator, partial curve, poor fit]"
6,Cc1cc(OCC(=O)N2CCc3ccccc3C2)c2c(-c3ccccc3)cc(=O)oc2c1,"inconclusive: 29.1 µM [inhibitor, single point]"
7,CC(C)Cn1c(-c2ccco2)n[nH]c1=S,inactive
8,Cc1cc(NC(=O)c2ccccc2)no1,"inconclusive: 23.1 µM [activator, partial curve]"
9,Nc1nc(-c2cccs2)cs1,"inconclusive: 20 µM [activator, single point]"
10,Cc1cccc(N2CCN(C(=O)CCC(=O)N3CC(C)Oc4ccccc43)CC2)c1C (stereo not given),"inconclusive: 9.2 µM [inhibitor, partial curve, poor fit]"
11,CCCC(=O)NC(c1ccccc1OC)c1ccc2cccnc2c1O (stereo not given),active: 4.11 µM
12,O=c1nc(N/N=C/c2ccccn2)cn[nH]1,"inconclusive: 3.26 µM [inhibitor, partial curve, poor fit]"
13,COc1ccc(NC(=O)NCc2cccnc2)c(OC)c1,inactive
14,O=[N+]([O-])c1ccc(N2CCN(c3cccc(Cl)c3)CC2)nc1,inactive
15,S=C(Nc1ccc(CN2CCCCC2)cc1)Nc1cccc(Cl)c1Cl,"inconclusive: 20.6 µM [activator, single point]"
16,O=C(COC(=O)c1ccc(NC(=O)C2CC=CCC2C(=O)O)cc1)c1ccccc1 (stereo not given),inactive
17,CN(C)NC(=S)NC(=O)C12CC3CC(CC(C3)C1)C2,inactive
18,COc1ccc(-n2nc([N+](=O)[O-])c(=NCCC3=CCCCC3)n2O)cc1,"inconclusive: 18.3 µM [activator, partial curve]"
19,Cc1oc(-c2ccccc2F)nc1CS(=O)(=O)CC(=O)NC1CCCC1,"inconclusive: 29.1 µM [inhibitor, single point]"
20,CCOc1cc(C=C(C#N)C#N)ccc1Oc1ccc([N+](=O)[O-])cn1,inactive
21,Cc1ccc2nc(C3CCCCC3)[nH]c2c1,"inconclusive: 16.4 µM [activator, partial curve]"
22,CCc1ccc(NC(=O)COc2ccc(/C=C(/C#N)c3nc4ccccc4[nH]3)cc2OC)cc1,"inconclusive: 6.51 µM [activator, single point]"
